At least one compound was matched to its structure with a doubt left.
System: recall of previously experienced objects
Assay: Novel object recognition paradigm
Format: in vivo, Wistar rats
Description: A novel object recognition paradigm in rats was used to evaluate their recall of previously experienced objects. Specifically, adult Wistar rats were exposed to novel test objects and then reexposed to them 24 hours later. Animals were divided into 5 groups receiving either: (1) vehicle, (2) galantamine (3 mg/kg i.p.) 1 hr before testing as a positive control, (3) Peptide ID (24 nmol/kg bw i.p.) 3 hours after the first exposure to the novel objects, (4) Peptide ID (24 nmol/kg bw i.p.) twice daily for 5 days before training and continued through the day immediately after training, and (5) Peptide ID (24 nmol/kg bw i.p.) 1 hour before first exposure to the novel object.

COc1ccc2c3c1O[C@H]1C[C@@H](O)C=C[C@@]31CCN(C)C2 [galantamine, reference compound]
recognition of the novel objects (galantamine 3 mg/kg of bw, Peptide ID 24 nmol/kg of bw at various time points, FIG. 9): increased the rats recognition of the novel objects | recognition of the novel objects (group 2: 3 mg/kg i.p. 1 hr before testing): improved recognition of the novel objects

Source: patent US9580465B2, “Tissue protective peptides and peptide analogs for preventing and treating diseases and disorders associated with tissue damage” (ARAIM PHARMACEUTICALS, INC., priority 2008, dated 2017)
